In paper PMC6444592, “Citrullination of HP1γ chromodomain affects association with chromatin” (Epigenetics & Chromatin, 2019):

System: HP1γ
Assay: MS/MS identification of citrullinated peptides
Design: species or system mouse
Conditions: MS analysis

Substance: heterochromatin protein 1 gamma [HP1γ]
- stoichiometry of HP1γ citrullination in mESCs: very low percentage range
